Measured values taken from patent US11344009B2, “All sterile males of culicine mosquitoes: a method of creation” (priority 2014, dated 2022).
For at least one compound, name, drawing or mass did not settle the structure.

Test system: Ae. aegypti strain Hanoi1 transformed with Tra-2 RNAi (long dsmRNA) construct
Test: Outcross of Dox-induced homozygous Tra-2 RNAi transgenic males with wild type virgin females, sex ratio of the crosses
Assay type: in vivo, Aedes aegypti
Conditions: for Hatch rate (hatched/eggs): 500 eggs
Method: The Ae. aegypti strain named Hanoi1 was transformed with a Tra-2 RNAi (long dsmRNA) construct. This construct was assembled with rtTA(pTet-on advanced) and pTre-tight regulatory system as mentioned in Example 1. The strain was challenged with Dox three different concentrations (0.3 mg/L; 3 mg/L and 30 mg/L) between the third larvae stage and 3 day old adult. The males from each Dox concentration challenge were divided into two groups; one group was Q-PCR to reveal the knockdown level of Tra-2. The other group was outcrossed with wild type females. Total RNA from Hanoi 1 wild type males and Tra-2 RNAi/Hanoi 1 transgenic males were isolated in pools of 5 males in 3 biological replicates. The primers used for Actin5C (endogenous reference gene) were F: (5′-[…]-3′) (SEQ ID NO: 53) and R: (5′-[…]-3′) (SEQ ID NO: 54) which produced a 125 bp fragment. Primers used for amplifying Tra-2, which produced a 125 bp fragment nearby the Tra-2 RNAi target site, were: Forward: (5′ […] 3′) (SEQ ID NO: 55) and Reverse: (5′ […] 3′) (SEQ ID NO: 56). Three biological replicates were carried out in each Dox condition. The knockdown of expression levels were calculated by the relative standard curve method (Applied Biosystems), in which Act5C as an endogenous reference and wild type Hanoi 1 as an exogenous calibrator. PCR cycle was 95° C. for 15 mins; 45 cycles of 10 sec at 95° C., 10 sec at XC, 20 sec at 72° C., plate reading. X is annealing temperature, of which 59° C. for the reference gene Actin5C and 55° C. was used for Tra-2 primers. […] 0.3 mg/L caused a slight difference in comparison with wild type (96.98% wild type). […] See details in FIG. 2.
10 homozygous males (3 day old) from each concentration were crossed with 10 wild type virgin females.

SMILES: C[C@H]1c2cccc(O)c2C(=O)C2=C(O)[C@]3(O)C(=O)C(C(N)=O)=C(O)[C@@H](N(C)C)[C@@H]3[C@@H](O)[C@@H]21 [Dox, Doxycycline]
- Male ratio (males/females, counts of progeny) (males induced at 0.3 mg/L Dox): 235/221
- Hatch rate (hatched/eggs) (males induced at 0.3 mg/L Dox): 477/500
- Male ratio (males/females, counts of progeny) (males induced at 3 mg/L Dox): 279/151
- Hatch rate (hatched/eggs) (males induced at 3 mg/L Dox): 453/500
- Male ratio (males/females, counts of progeny) (males induced at 30 mg/L Dox): 387/27
- Hatch rate (hatched/eggs) (males induced at 30 mg/L Dox): 458/500
